Measured values: the supplement of paper PMC7877785
± gives the uncertainty stated by the source. Many of these values have a large error.

Experiment: self-splicing fitness, log relative to wild type (ln ratio); higher = more splicing; Tetrahymena group I intron in knt gene, E. coli kanamycin selection, DiMSum; sequences stand for … in CUCUCU…GGAGGGAAAAGUUAUCAGGCAUGCACCUGGUAGCUAGUCUUUAAACCAAUAGAUUGCAUCGGUUUAAAAGGCAAGACCGUCAAAUUGCGGGAAAGGGGUCAACAGCCGUUCAGUACCAAGUCUCAGGGGAAACUUUGAGAUGGCCUUGCAAAGGGUAUGGUAAUAAGCUGACGGACAUGGUCCUAACCACGCAGCCAAGUCCUAAGUCAACAGAUCUUCUGUUGAUAUGGAUGCAGUUCACAGACUAAAUGUCGGUCGGGGAAGAUGUAUUCUUCUCAUAAGAUAUAGUCGGACCUCUCCUUAAUGGGAGCUAGCGGAUGAAGUGAUGCAACACUGGAGCCGCUGGGAACUAAUUUGUAUGCGAAAGUAUAUUGAUUAGUUUUGGAGUACUCGUGGUCG
How it was run: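 Pooled colonies went to amplicon sequencing on an Illumina HiSeq 2500 after six replicate transformations. The plates were LB agar with 100 μg/mL carbenicillin, 50 μM IPTG and 0.2% rhamnose, with or without 25 μg/mL kanamycin, incubated overnight at 37°C or 30°C. The E. coli BL21(DE3) library had all eight P1ex-region intron nucleotides randomised, the intron placed in the knt kanamycin-resistance gene on pET-22b(+). DiMSum fitness is the error-weighted combination of replicate fold changes, kanamycin against none, normalised to wild type.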

Row | Sequence | self-splicing fitness (ln) (30 °C) | self-splicing fitness (ln) (37 °C)
1 | UCGCAGCAAUAUUACGCCAU | -3.46 ± 0.53 | 
2 | GUGGAGCAAUAUUACGUUCC |  | -1.2 ± 0.75
3 | UAGGAGCAAUAUUACGCUGA | -3.38 ± 0.77 | 
4 | CAAGAGCAAUAUUACGCCCA | -3.06 ± 1.1 | 
5 | CUCAAGCAAUAUUACGACUC | -3.67 ± 0.6 | -3.11 ± 0.63
6 | UCUGAGCAAUAUUACGUGCU |  | -3.65 ± 0.59
7 | GCCCAGCAAUAUUACGUUAC | -2.2 ± 0.083 | -0.962 ± 0.087
8 | AUGCAGCAAUAUUACGGCCC | -0.0496 ± 0.14 | 0.777 ± 0.19
9 | UUCUAGCAAUAUUACGCCUC | -2.65 ± 0.76 | 
10 | AAGAAGCAAUAUUACGGGGC | -4.79 ± 0.59 | 
11 | UCGGAGCAAUAUUACGCCGU | -2.37 ± 0.64 | -2.38 ± 0.64
12 | ACGGAGCAAUAUUACGCAAG | -3.14 ± 0.27 | -1.79 ± 0.26
13 | CGCCAGCAAUAUUACGCCAC | -4.21 ± 0.51 | 
14 | CGUCAGCAAUAUUACGGAAG | -0.632 ± 0.088 | 0.304 ± 0.12
15 | ACAGAGCAAUAUUACGCUAC |  | -2.82 ± 0.54
16 | CAUAAGCAAUAUUACGCCGA | -3.42 ± 0.77 | 
17 | UUCUAGCAAUAUUACGGUAU | -3.8 ± 0.54 | 
18 | CAGUAGCAAUAUUACGCUCC | -3.44 ± 0.54 | 
19 | GCCGAGCAAUAUUACGCCGA | -1.27 ± 1 | -1.07 ± 0.74
20 | UGCUAGCAAUAUUACGGACU | -0.341 ± 0.1 | -0.639 ± 0.088
21 | UUGUAGCAAUAUUACGGAGA | -3.34 ± 1 | 
22 | GUUCAGCAAUAUUACGCACG | -0.107 ± 0.22 | -0.682 ± 0.31
23 | UGUGAGCAAUAUUACGGUAU |  | -2.4 ± 0.64
24 | CAGUAGCAAUAUUACGAAGC | -4.73 ± 1 | -3.05 ± 0.32

Two records picked at random from those above:
Row | Sequence | self-splicing fitness (ln) (30 °C) | self-splicing fitness (ln) (37 °C)
5 | CUCAAGCAAUAUUACGACUC | -3.67 ± 0.6 | -3.11 ± 0.63
6 | UCUGAGCAAUAUUACGUGCU |  | -3.65 ± 0.59

Next part

Row | Sequence | self-splicing fitness (ln) (30 °C) | self-splicing fitness (ln) (37 °C)
25 | UCUCAGCAAUAUUACGCCGG |  | -1.59 ± 0.53
26 | CGCGAGCAAUAUUACGGCUC |  | -1.87 ± 0.79
27 | GUGUAGCAAUAUUACGCAGA | -2.02 ± 1.2 | -2.04 ± 0.57
28 | CAAUAGCAAUAUUACGGGCC | -5.08 ± 0.58 | 
29 | ACGGAGCAAUAUUACGUGGG | -3.99 ± 0.18 | -2.29 ± 0.15
30 | CUGCAGCAAUAUUACGCAUC | -4.48 ± 1 | 
31 | CAGAAGCAAUAUUACGAAUA | -2.43 ± 0.27 | -1.84 ± 0.24
32 | CAGGAGCAAUAUUACGUACA | -2.55 ± 0.49 | -1.73 ± 0.42
33 | AACGAGCAAUAUUACGCCUG |  | -2.99 ± 0.75
34 | GGUCAGCAAUAUUACGGAGG | -4.27 ± 0.51 | 
35 | UUUGAGCAAUAUUACGACGU | -3.44 ± 0.52 | -3.28 ± 0.6
36 | UUGGAGCAAUAUUACGCUAA | -2.18 ± 0.85 | -0.188 ± 0.52
37 | AACUAGCAAUAUUACGCCAC | -5.03 ± 1 | 
38 | UCAGAGCAAUAUUACGAAGC |  | -1.81 ± 0.83
39 | CAGGAGCAAUAUUACGCCGA |  | 0.0981 ± 1.2
40 | CACUAGCAAUAUUACGGAAC | -4.76 ± 0.59 | 
41 | CAAAAGCAAUAUUACGUGGU | -3.65 ± 0.11 | -2.49 ± 0.11
42 | UGGCAGCAAUAUUACGCGUC | -3.54 ± 0.37 | -2.21 ± 0.3
43 | GAUGAGCAAUAUUACGAGAU | -4.04 ± 1.1 | 
44 | GCAGAGCAAUAUUACGAAGC | -4.34 ± 0.72 | -2.68 ± 0.76
45 | CCUUAGCAAUAUUACGCAUU |  | -2.13 ± 0.56
46 | UCUUAGCAAUAUUACGUGUC | -3.39 ± 1 | -3 ± 0.53
47 | CGAGAGCAAUAUUACGCGCG |  | -2.65 ± 0.55
